PubChem BioAssay AID1159584, Peter MacCallum Cancer Centre | 2016
The whole screen tested about 18,000 reagents; this is a random part of them. Not all columns of the deposit are shown. Not stated in the record: the amount of reagent, the time to read-out.

Purpose: 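Genes that CDH1-null MCF10A cells selectively depend on to survive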 (primary screen)
System: human MCF10A breast epithelial cells, parental and CDH1-null
Reagent: siRNA against human genes
Measured: 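ATP luminescence (CellTiter-Glo) viability per line relative to mean mock wells over all plates, and the ratio of CDH1-null to parental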
Direction: CDH1-null / parental viability ratio: higher = CDH1-null cells survive relatively better than parental; CDH1-null viability vs mock: higher = more viable CDH1-null cells

| target gene | CDH1-null / parental viability ratio | CDH1-null viability vs mock (fraction of mock) |
| --- | --- | --- |
| XK | 0.98 | 1.23 |
| PGAM1 | 1.25 | 0.76 |
| MORN3 | 0.81 | 0.7 |
| TMEM214 | 0.96 | 1 |
| DDR1 | 0.97 | 0.7 |
| PGR | 0.81 | 0.56 |
| RNF111 | 0.87 | 0.66 |
| DNAAF6 | 1.04 | 0.99 |
| SPSB3 | 1 | 0.46 |
| CEMIP | 1.22 | 1.22 |
| WNT7A | 1 | 0.9 |
| CIRBP-AS1 | 1.12 | 1.03 |
| YIPF2 | 0.91 | 0.75 |
| GTSF1L | 0.87 | 0.62 |
| CHD4 | 0.65 | 0.6 |
| TIMM10B | 0.96 | 0.9 |
| HENMT1 | 1.29 | 0.88 |
| EXTL2 | 0.94 | 0.89 |
| DHX36 | 1.19 | 0.88 |
| CCDC27 | 0.92 | 0.94 |
| ACTR3 | 1.07 | 1.04 |
| ANXA7 | 1.25 | 0.84 |
| CRYAB | 0.76 | 0.55 |
| FUT4 | 0.74 | 0.46 |
| NFKBIZ | 1.05 | 1.02 |
| C1GALT1 | 0.89 | 0.85 |
| GALNT15 | 0.82 | 0.74 |
| ERN2 | 0.92 | 0.79 |
| CNOT6 | 1.32 | 0.5 |
| SETD3 | 0.96 | 0.54 |
| OR51E2 | 1.09 | 0.7 |
| FBP1 | 1.33 | 0.96 |
| SYT14P1 | 0.8 | 0.95 |
| GTPBP6 | 1.03 | 0.66 |
| PDYN | 1 | 0.88 |
| IDH3G | 0.67 | 0.46 |
| ACSS3 | 0.98 | 0.91 |
| MRPL48 | 0.81 | 0.78 |
| PCDHGC4 | 0.93 | 0.86 |
| CACNA1S | 1.45 | 1.13 |
| FUT3 | 1.28 | 1.15 |
| OR2T33 | 1.07 | 0.64 |
| TIPE3 | 0.85 | 0.45 |
| RPRML | 1.31 | 1.05 |
| TSPAN5 | 1.16 | 0.58 |
| C3AR1 | 1.3 | 0.9 |
| PRKAB2 | 1 | 0.88 |
| LOXL3 | 0.95 | 0.72 |
| CHCT1 | 0.94 | 0.84 |
| ELOVL3 | 1.06 | 1.02 |
| MRTO4 | 1.02 | 1 |
| CLEC4A | 0.74 | 0.5 |
| PDE6A | 1.12 | 0.74 |
| FOSL1 | 1.17 | 1.05 |
| ST20-AS1 | 1.11 | 1 |
| COX6B1 | 1.16 | 0.74 |
| ZUP1 | 1.14 | 0.96 |
| BGN | 1.25 | 0.86 |
| AVP | 1.08 | 0.4 |
| VENTX | 1.12 | 0.92 |
| NLRP5 | 0.59 | 0.66 |
| EEIG1 | 1.22 | 1.21 |
| NOL4 | 1.14 | 0.9 |
| FOXP1 | 0.89 | 0.68 |
| TSHB | 1.24 | 1.13 |
| TMTC4 | 1.37 | 0.78 |
| GUCY2EP | 1.04 | 0.88 |
| GSPT1 | 0.95 | 0.54 |
| SPA17 | 1.17 | 0.47 |
| GBP2 | 0.96 | 0.9 |
| MTIF3 | 0.69 | 0.41 |
| ATP5MF | 0.79 | 0.52 |
| YIPF5 | 0.99 | 0.92 |
| SKOR2 | 0.89 | 0.82 |
| ACER1 | 0.84 | 0.57 |
| MAST3 | 0.82 | 0.75 |
| DGKI | 0.99 | 0.81 |
| OR2A4 | 0.93 | 0.52 |
| S100A3 | 1.02 | 0.87 |
| EFCC1 | 1.07 | 0.92 |
| CAVIN4 | 1.1 | 0.98 |
| CCN6 | 1.61 | 0.5 |
| ACTR3B | 0.96 | 1 |
| C19orf73 | 0.78 | 0.64 |
| GPATCH11 | 1.11 | 0.82 |
| GNAS | 0.84 | 0.76 |
| MT2A | 0.87 | 0.59 |

7 of these entries in another layout.
{"target gene": "NLRP5", "CDH1-null / parental viability ratio": 0.59, "CDH1-null viability vs mock (fraction of mock)": 0.66}
{"target gene": "EEIG1", "CDH1-null / parental viability ratio": 1.22, "CDH1-null viability vs mock (fraction of mock)": 1.21}
{"target gene": "NOL4", "CDH1-null / parental viability ratio": 1.14, "CDH1-null viability vs mock (fraction of mock)": 0.9}
{"target gene": "FOXP1", "CDH1-null / parental viability ratio": 0.89, "CDH1-null viability vs mock (fraction of mock)": 0.68}
{"target gene": "TSHB", "CDH1-null / parental viability ratio": 1.24, "CDH1-null viability vs mock (fraction of mock)": 1.13}
{"target gene": "TMTC4", "CDH1-null / parental viability ratio": 1.37, "CDH1-null viability vs mock (fraction of mock)": 0.78}
{"target gene": "GUCY2EP", "CDH1-null / parental viability ratio": 1.04, "CDH1-null viability vs mock (fraction of mock)": 0.88}
